In PubChem BioAssay AID2685 (National Center for Advancing Translational Sciences (NCATS), 2010):
The list shows a part of the results. Shown are side measurements of this screen, not its main read-out; they come without a call. Most of these compounds were active or inconclusive in the main read-out, so they are no random draw. The note in brackets gives the kind of curve behind each potency; many fits are weak.

Test: qHTS Assay for Lipid Storage Modulators in Drosophila S3 Cells;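 on cell number change: cells counted by Cell Tracker Red CMTPX staining in the red channel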
Details: BODIPY lipid droplet fluorescence, 18-24 h; for cell number change: measured here: cell count max response, cells fed with added oleic acid
How it was run: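 Drosophila S3 cells loaded with oleic acid (400 uM, as added) and compounds at several concentrations; lipid droplets imaged by 488-nm laser-scanning cytometry, 500–530 nm intensity and object ratio to cell channel. Percent activity normalized to 20 uM Triacsin C.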

[1] = measured here: lipid fluorescence (Fed channel) AC50, cells fed with added oleic acid
[2] = measured here: cell number channel AC50, cells fed with added oleic acid

SMILES	AC50 [1]	cell number change	AC50 [2]
COc1ccc(NC(=O)CC(C)c2ccccc2)c([N+](=O)[O-])c1 (configuration not stated)	6.51 µM [rising, partial curve]	–	–
Cc1ccc(-n2nc3ccc(NC(=O)C(C)C)cc3n2)cc1	29.1 µM [falling, single point]	-38.9%	29.1 µM [falling, single point]
O=C(O)c1cccc(-c2ccc(/C=N/n3cnc4sc5c(c4c3=O)CCCC5)o2)c1	23.1 µM [rising, single point]	34.9%	13 µM [rising, single point]
O=C(CSc1nc(=O)n2ccccc2n1)NCc1ccccc1	–	-9.64%	–
Cn1cccc1C(C(=O)NC1CCCCC1)N(C(=O)Cc1cccs1)C1CC1 (configuration not stated)	0.366 µM [falling, partial curve, poor fit]	-10.6%	0.13 µM [rising, full curve, poor fit]
O=S(=O)(c1ccccc1)N(Cc1ccccn1)Cc1ccccn1	–	-49.3%	29.1 µM [falling, single point]
Cc1c(NS(=O)(=O)c2ccc(N3CCN(C)CC3)c([N+](=O)[O-])c2)c(=O)n(-c2ccccc2)n1C	2.06 µM [falling, partial curve]	-49.3%	3.26 µM [falling, partial curve]
Cc1[nH]c2ccc(C(=O)OCCN(C)C)cc2c1C	–	–	1.64 µM [rising, partial curve]
O=C(Cc1ccccc1)N1CCN(c2ncccn2)CC1	2.91 µM [rising, single point]	0.371%	–
OCC1(Cc2ccccc2)CCCN(Cc2ccn[nH]2)C1 (configuration not stated)	–	8.28%	–
O=c1oc(-c2ccco2)nc2c1cnn2-c1ccccc1	0.58 µM [rising, single point]	131%	0.58 µM [rising, single point]
COc1cccc(NC(=O)COC(=O)c2c(C)nn(-c3ccccc3)c2C)c1	0.092 µM [rising, full curve, poor fit]	16.2%	–
COc1cc(C(=O)OCC(=O)NC2CCCCC2)cc2c1OCCO2	20.6 µM [rising, single point]	6.49%	–
CC(C)COc1ccc(C(=O)OCCN2CCOCC2)cc1	1.64 µM [rising, full curve]	-10.5%	–
CNC(=O)c1cn(-c2ccc(Cl)cc2)c(=O)c2ccccc12	0.366 µM [falling, partial curve, poor fit]	-30%	0.164 µM [falling, full curve, poor fit]
COC(=O)[C@H]1C2CCC(C(=O)OC)(CC2)[C@H]1C(=O)OC	0.13 µM [falling, full curve, poor fit]	–	–
Cc1cc(NC(=O)CCN2CC(C)OC(C)C2)ccc1Br (configuration not stated)	6.51 µM [rising, single point]	-22.8%	–
COc1cccc(NC(=O)C2CC(=O)N(C)C(=Nc3cccc(F)c3)S2)c1 (configuration not stated)	–	-1.64%	–

SMILES	AC50 [1]	cell number change	AC50 [2]
CCOC(=O)c1c(NC(=O)CSc2ncn[nH]2)sc(C(C)=O)c1C	–	17%	–
COc1ccccc1NC(=O)CSc1nccn1Cc1ccc(F)cc1	7.31 µM [rising, partial curve]	30.1%	11.6 µM [rising, single point]
O=C(NCc1cc(C(F)(F)F)cc(C(F)(F)F)c1)C1CC(c2ccccc2C(F)(F)F)=NO1 (configuration not stated)	29.1 µM [falling, partial curve, poor fit]	-18%	–
O=C(/C=C/c1ccccc1Cl)N(Cc1cccs1)C1CCS(=O)(=O)C1 (configuration not stated)	–	19.1%	–
CC(C)c1ccc(S(=O)(=O)c2cn(Cc3ccc(F)cc3)c3cc4c(cc3c2=O)OCO4)cc1	1.84 µM [rising, partial curve, poor fit]	–	1.64 µM [falling, partial curve]
CCOc1ccc(NC(=O)COc2ccc(C(=O)N3CCC(C(N)=O)CC3)cc2OC)cc1	0.58 µM [rising, full curve]	3.85%	–
CC(=O)NCCC(=O)Nc1nc2ccc(Oc3ccccc3)cc2s1	29.1 µM [falling, partial curve, poor fit]	12.2%	–
Cc1nn(CCCC(=O)Nc2sc3c(c2C#N)CCC3)c(C)c1[N+](=O)[O-]	0.651 µM [rising, partial curve, poor fit]	–	0.146 µM [rising, single point]
O=C(N/C(=N\O)c1ccccc1)Nc1ccc(Cl)cc1	29.1 µM [rising, single point]	129%	6.51 µM [rising, partial curve]
Cc1cc(C)cc(C(=O)Oc2coc(CSc3nnc(NC(=O)C4CC4)s3)cc2=O)c1	–	4.3%	–
COc1cccc(OCC(=O)Nc2cc(NC(=O)COc3cccc(OC)c3)cc(C(=O)O)c2)c1	4.61 µM [rising, partial curve]	6.93%	–
COc1ccc(C(=O)NCc2nnc(SCC(=O)N3CCCCC3)o2)cc1OC	2.91 µM [rising, partial curve]	–	4.11 µM [rising, partial curve, poor fit]
COc1ccc(CCN2C(=O)N(c3ccc(OC)cc3)C(=O)C2CC(=O)Nc2ccc(OC)cc2)cc1 (configuration not stated)	–	17.1%	–
O=C(CSc1ccc2nnc(-c3ccncc3)n2n1)NCc1ccco1	2.91 µM [rising, partial curve]	–	–
O=C(c1ccc(Cl)c([N+](=O)[O-])c1)N1CCN(c2ccccn2)CC1	29.1 µM [rising, single point]	34%	16.4 µM [rising, single point]
COc1ccc(Cl)cc1NC(=O)CSc1nncn1-c1cccnc1	2.59 µM [rising, partial curve]	7.85%	2.91 µM [rising, partial curve]
CSc1ncc(Cl)c(C(=O)Nc2ccc(S(=O)(=O)N3CCOCC3)cc2)n1	0.00461 µM [rising, full curve, poor fit]	-30.8%	–
O=[N+]([O-])c1cccc(-c2cc(-c3cc(Br)ccc3O)[nH]n2)c1	0.00517 µM [rising, full curve, poor fit]	10.9%	0.00517 µM [rising, full curve, poor fit]

2 of these compounds in another layout.
SMILES,AC50 [1],cell number change,AC50 [2]
COc1cccc(OCC(=O)Nc2cc(NC(=O)COc3cccc(OC)c3)cc(C(=O)O)c2)c1,"4.61 µM [rising, partial curve]",6.93%,–
COc1ccc(C(=O)NCc2nnc(SCC(=O)N3CCCCC3)o2)cc1OC,"2.91 µM [rising, partial curve]",–,"4.11 µM [rising, partial curve, poor fit]"
